The experiment deals with T1, wild-type C21orf2 tagged with a C-terminal turbo-GFP (tGFP) (human) (UniProt O43822).
T1 sequence: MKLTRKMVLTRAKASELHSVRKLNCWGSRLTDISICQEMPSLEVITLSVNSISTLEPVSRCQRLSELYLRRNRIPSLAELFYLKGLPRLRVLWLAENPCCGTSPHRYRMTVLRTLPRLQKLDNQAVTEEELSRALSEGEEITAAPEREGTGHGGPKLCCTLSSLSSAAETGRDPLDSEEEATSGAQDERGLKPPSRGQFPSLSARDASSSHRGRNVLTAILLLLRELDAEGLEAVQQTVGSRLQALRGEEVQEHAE
Briefly: co-IP.

Protein sequences, listed by entry. Tags and fused reporters are not part of them. Lines headed by an entry give the natural chain unless they say otherwise; changes in a name come on top.
UniProt P23258: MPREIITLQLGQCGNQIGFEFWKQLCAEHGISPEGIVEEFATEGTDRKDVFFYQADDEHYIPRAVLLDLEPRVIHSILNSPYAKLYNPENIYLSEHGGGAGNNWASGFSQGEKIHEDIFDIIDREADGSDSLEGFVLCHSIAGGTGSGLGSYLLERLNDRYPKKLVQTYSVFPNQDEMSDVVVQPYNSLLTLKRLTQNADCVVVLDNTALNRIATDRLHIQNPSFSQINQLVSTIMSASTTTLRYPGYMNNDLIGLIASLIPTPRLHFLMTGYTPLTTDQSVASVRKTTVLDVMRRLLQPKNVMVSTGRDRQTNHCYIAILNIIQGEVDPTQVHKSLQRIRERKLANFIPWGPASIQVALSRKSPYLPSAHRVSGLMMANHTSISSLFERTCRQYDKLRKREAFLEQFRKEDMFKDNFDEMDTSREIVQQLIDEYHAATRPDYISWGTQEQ

No constants are given. Whether binding was seen depends on the method and setting. In cells and extracts the contact can be indirect. Binding calls can cover weak binding; strength is not graded here. Tags and fused reporters may be left off the sequences shown.

Turning to γ-tubulin (from UniProt P23258), the binding entry is “binds”.

Values taken from article doi:10.1101/2022.02.28.482239.
